From PubChem BioAssay AID540256 (National Center for Advancing Translational Sciences (NCATS), 2011)
The whole screen tested about 300,000 compounds, of which about 3,700 (1.2%) were called active. Inconclusive results, whose numbers are uncertain, are shown with a selection of clear calls. The call rests on the fitted dose curve; tested in HEK293 cells. Potencies beside an inconclusive call are fits to weak or partial responses and may not hold up.

Assay: qHTS for Inhibitors of binding or entry into cells for Lassa Virus; further: nearly all actives have a fitted effect of over 50% in size
Settings: Lassa virus pseudotype entry inhibition, cell reporter; activity change, negative = inhibition: at 37.9 µM (top of the series) unless noted
On the % scale 0 is the no-effect control and ±100 the full control effect; potency means the concentration at half of the fitted maximal effect.

Row | SMILES | Potency | activity change, negative = inhibition
1 | COc1ccc(NS(=O)(=O)c2cccc(C(=O)NCc3ccco3)c2)cc1 | inconclusive: 35.5 µM [inhibitor, partial curve, poor fit] | 
2 | Cc1cccc(NC(=O)CSc2cc(C(=O)c3nccn3C)c3ccccc3n2)c1 | inconclusive: 20 µM [activator, partial curve, poor fit] | 
3 | Cc1ccsc1/C=N/NC(=O)c1ccccn1 | inconclusive: 11.2 µM [inhibitor, single point] | 
4 | CN1/C(=C/c2cccc[n+]2CCO)Sc2ccccc21 |  | inactive: -0.827%
5 | COc1ccc(CNC(=O)CSc2nc3ccc(C)cc3[nH]2)cc1 | inconclusive: 7.94 µM [activator, partial curve, poor fit] | 
6 | Cc1cccc(Cn2cc(S(=O)(=O)c3ccccc3)c(=O)c3cc(F)c(N4CCOCC4)cc32)c1 | inconclusive: 15.8 µM [inhibitor, single point] | 
7 | Nc1nc(NC(=O)/C=C/c2ccc(F)cc2)nn1-c1ccccc1 | inconclusive: 0.891 µM [inhibitor, partial curve, poor fit] | 
8 | COc1cc(C(=S)N2CCOCC2)cc(OC)c1OC(=O)c1ccc(F)cc1 | inconclusive: 5.01 µM [inhibitor, partial curve] | 
9 | COc1ccc(OCc2cc(C(=O)NCc3cccc(C)n3)no2)c(Cl)c1 |  | inactive: 2.16%
10 | Cc1ccc(NC(=O)c2ccc(CSc3nnnn3C)cc2)cc1 | inconclusive: 0.282 µM [activator, full curve, poor fit] | 
11 | CC1CC(Nc2ccccc2)c2ccccc2N1C(=O)c1cccnc1 (configuration not stated) |  | inactive: -29.2%
12 | COc1ccc(-n2c(C)nc3c(cnn3-c3ccccc3)c2=O)cc1 | inconclusive: 6.51 µM [inhibitor, full curve] | 
13 | CCCC1(C)Nc2ccccc2-c2nc3ccccc3n21 (configuration not stated) |  | inactive: 24%
14 | O=C(/C=C/Nc1ccc(S(=O)(=O)Nc2cnc3ccccc3n2)cc1)c1ccccc1 |  | inactive: -9.28%
15 | COc1ccc(Nc2nc(-c3cccc([N+](=O)[O-])c3)nc3ccccc23)cc1 | inconclusive: 3.16 µM [inhibitor, partial curve, poor fit] | 
16 | CCN(CC)S(=O)(=O)c1ccc(C(=O)NCC(=O)NCCCc2ccccc2)cc1 | inconclusive: 5.62 µM [inhibitor, partial curve, poor fit] | 
17 | COc1ccc(C(=O)Nc2ccc3ncccc3c2)cc1 | inconclusive: 7.94 µM [inhibitor, partial curve, poor fit] | 
18 | Cc1ccc(C(=O)Nc2ccccc2N2CCCC2)cc1 |  | inactive: -2.79%
19 | Cc1ccc(NC(=O)CN2c3cccc4cccc(c34)S2(=O)=O)cc1S(=O)(=O)N1CCOCC1 |  | inactive: 13.6%
20 | COc1cc2c(cc1OC)-c1cc(NC3CCCCCCC3)nc(=O)n1CC2 | active: 14.1 µM | 
21 | CCCCCCN1C[C@@H](O)[C@H](n2cc(C3CC3)nn2)C[C@H]1c1ccccc1 | inconclusive: 3.96 µM [inhibitor, partial curve, poor fit] | 

Row | SMILES | Potency | activity change, negative = inhibition
22 | Cc1cccc(N2CCN(c3ccc4cc(S(=O)(=O)N5CCC(C)CC5)ccc4n3)CC2)c1C | inconclusive: 3.55 µM [inhibitor, single point] | 
23 | COCCCNC(=S)N/N=C/c1ccc(OC)cc1 |  | inactive: -12.4%
24 | O=C(Nc1nc(-c2ccccn2)cs1)C1CC1 | inconclusive: 8.2 µM [inhibitor, partial curve, poor fit] | 
25 | Cc1ccc(-n2ncc3c(NCCCn4ccnc4)ncnc32)cc1C | inconclusive: 11.2 µM [activator, partial curve, poor fit] | 
26 | O=C(CN(C1CCCCC1)S(=O)(=O)c1ccc(Cl)cc1)NCc1cccnc1 | inconclusive: 4.11 µM [activator, partial curve, poor fit] | 
27 | COc1ccccc1-c1cc(C(=O)Nc2cc(C)n(Cc3ccc(Cl)cc3)n2)no1 | inconclusive: 29.1 µM [inhibitor, single point] | 
28 | O=[N+]([O-])c1cccc(S(=O)(=O)N2CN(c3ccc(Br)cc3)c3nc4ccccc4nc32)c1 |  | inactive: 15.4%
29 | O=C(c1cccc(F)c1)N1CCN(Cc2ccco2)CC1 | inconclusive: 35.5 µM [activator, partial curve, poor fit] | 
30 | Clc1ccc(-c2nnc(COc3ncnc4sccc34)o2)cc1 | inconclusive: 0.316 µM [inhibitor, partial curve, poor fit] | 
31 | CCOC(=O)N1CCc2c(sc3c2c(=O)n(-c2ccc(CC)cc2)c(=O)n3Cc2ccc(F)cc2Cl)C1 | inconclusive: 2.82 µM [inhibitor, partial curve, poor fit] | 
32 | O=C(On1c(-c2ccccc2)nc2ccccc2c1=O)c1ccco1 | inconclusive: 10.3 µM [inhibitor, partial curve] | 
33 | Cc1ccc(Cl)cc1NC1=C/C(=N\S(=O)(=O)c2cccs2)c2ccccc2C1=O | active: 6.51 µM | 
34 | CCN(c1ccccc1)S(=O)(=O)c1ccc(Cl)c(NC(=O)CSc2nncs2)c1 | inconclusive: 3.98 µM [inhibitor, partial curve] | 
35 | CCc1c(C)nc2ncnn2c1NCCc1ccc(OC)c(OC)c1 |  | inactive: -24.9%
36 | C=CCCC1CN(Cc2ccc(OC)cc2)S(=O)(=O)c2c(Oc3cc(C)c(C)c(C)c3)cccc2O1 (configuration not stated) |  | inactive: -16.9% [at 46.1 µM]
37 | COc1ccc(S(=O)(=O)N(CC(=O)NC(C)c2ccccc2)c2ccc(C)cc2)cc1OC (configuration not stated) | inconclusive: 12.6 µM [inhibitor, single point] | 
38 | CCOC(=O)C1CCN(CC(C)(C)NS(=O)(=O)c2ccc(Cl)cc2)CC1 | inconclusive: 35.5 µM [inhibitor, single point] | 
39 | COc1ccc(N2CCN(CCCNC(=O)c3c(C)nn(-c4ccc(F)cc4)c3-n3cccc3)CC2)cc1 |  | inactive: -20.8% [at 46.1 µM]
40 | Cn1c(=O)c2c(nc(SCC(=O)Nc3ccccc3F)n2Cc2ccccc2F)n(C)c1=O |  | inactive: 9.48% [at 46.1 µM]
41 | COc1ccc(N2CCN(C(=O)CN(C)S(=O)(=O)c3cnc[nH]3)CC2)cc1 | inconclusive: 6.51 µM [inhibitor, single point] | 
42 | COc1cccc(C(=O)Nc2nc3c(s2)CN(C)CC3)c1 | inconclusive: 15.8 µM [activator, partial curve, poor fit] | 

As entered above.
O=C(c1cccc(F)c1)N1CCN(Cc2ccco2)CC1 | Potency: inconclusive: 35.5 µM [activator, partial curve, poor fit]
Cc1ccc(Cl)cc1NC1=C/C(=N\S(=O)(=O)c2cccs2)c2ccccc2C1=O | Potency: active: 6.51 µM
